In article PMC9658070 one finds binding data, which are given here for one molecule.

Amino acid sequences for entries named in this document (tags omitted). A change or cut given only in a name is not applied to a line headed by its entry.
UniProt Q9HE07: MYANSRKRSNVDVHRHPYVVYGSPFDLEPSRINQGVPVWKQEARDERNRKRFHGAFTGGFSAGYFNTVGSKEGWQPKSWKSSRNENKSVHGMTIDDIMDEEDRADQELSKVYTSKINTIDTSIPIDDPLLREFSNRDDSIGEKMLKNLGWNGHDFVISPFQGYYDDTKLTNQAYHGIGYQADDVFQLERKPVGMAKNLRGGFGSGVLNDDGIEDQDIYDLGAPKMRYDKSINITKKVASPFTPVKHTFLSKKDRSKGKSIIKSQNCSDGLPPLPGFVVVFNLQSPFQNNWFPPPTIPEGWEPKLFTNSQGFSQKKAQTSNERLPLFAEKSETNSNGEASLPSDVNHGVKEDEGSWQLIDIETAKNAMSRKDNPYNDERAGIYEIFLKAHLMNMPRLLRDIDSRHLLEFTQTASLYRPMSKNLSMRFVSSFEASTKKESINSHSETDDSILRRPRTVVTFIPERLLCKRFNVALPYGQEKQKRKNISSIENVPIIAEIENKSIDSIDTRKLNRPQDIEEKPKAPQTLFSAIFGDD

Holding throughout (experiment): two-hybrid; Matchmaker GAL4 system, BD fusions in pAS2-1 and AD fusions in pGADT7, S. cerevisiae PJ69-4A; growth on SD-L,W,A and colour on SD-L,W with X-gal, 30 °C, 48 h
Assay [1] addresses Wdr83 (Y2H fusion) (S. pombe).
Assay [2] has as its target full-length Gpl1 (Y2H fusion) (S. pombe) (UniProt Q9HE07).
The target of assay [3] is Gpl1(M), middle region of Gpl1 (111-259 aa) (Y2H fusion) (S. pombe) (UniProt Q9HE07).

No constants are given. Whether binding was seen depends on the method and setting. For part of these data: Binding calls can cover weak binding; strength is not graded here. Where a sequence is shown, tags or fusion partners need not be part of it.

B1: Gih35 (Y2H fusion) (protein, UniProt Q9HE06 1-647)
chain: MPNEFISQSLSTLTNTPLNIQKKLLPITKYRNQLLYAVEQNQITIVLGHTGCGKTTQIPQFLYEAGWASQNGIIGCTQPRRLVAKSVSERVSLELNSPPGSLCGYSIQFDHNVSEKTKIKYMTDGILLNEIFFDPLLERYSIVILDEVHERTLSTDLLLGVLKRILEKRNDFRLVLSSASVDANKLSQFFGQDKVCTMSIEGKLFPVETLFLQKPTENYVDSAIETVININSTYPPGDILVFLSGRKEIEYCIKKIEDSLIHASEDCQTLVPLPLHAGLTVDEQMRVFNIYDGDFRKVIFSTNIAETSITIDGIVYVVDSGFNKQRIYNPYTRTSKLINVPISKSSAIQRSGRAGRTMRGKVFRLYTEKAYSLMKEEFEADILNCDMSPLVLFLKGLGLKNILQFPFFVRPPTVHLMAALEDLYLLGVLDESGNLTDPLGIQISNSFLDANISKALLTSNQFGCTHEILSIASILTAGEVFYNPTSSSKNDAFVAHSSFFANEGDIITALNVFESFVGNKKDLQWCRKNYLNYQTLRQALDIRTHLVRFLNKFSIPTAQRLPSSDCSKILKCLLDGFVRNVAHLQNDGSYKTIGGKQVWLDSSSVLHEKKTPWIMYSSAVESETQIFVKNISKIESFWLDKYYKREK
Consider B1, for which the binding entry is “no binding” in assay [1], “binds” in assay [2] and “binds” in assay [3].
